Results are given in words; binding and its absence hold for the method and conditions named. Some results given as binding are weak or reduced against the parent protein; the word gives no strength.
Key:
Experiment in all cases: cell surface binding assay; transfected COS-7 cells incubated with 100 nM purified Fc-fusion protein in ECS (168 mM NaCl, 2.4 mM KCl, 20 mM HEPES pH 7.4, 10 mM D-glucose, 2 mM CaCl2, 1.3 mM MgCl2) with 100 μg/ml BSA, 1 h, room temperature; bound Fc immunostained with anti-human IgG and normalised to surface HA; only the binder purified
[1] = biological target: HA-NRX1αS1(+) S2(+) S3(+) S4(+) (extracellularly HA-tagged neurexin1α) (UniProt Q9CS84)
[2] = biological target: HA-NRX2αS1(+) S2(+) S3(+) S4(+) (extracellularly HA-tagged neurexin2α) (mouse) (UniProt E9Q7X7)
[3] = biological target: pDisplay-NRX2α LNS1 (aa 29-199) (mouse) (UniProt E9Q7X7)

By UniProt entry, the sequences of proteins in these tests, tags left out. Where a name states a change or a piece, a line headed by the entry shows the natural chain unless it says otherwise. Chains listed by the source or under a name are the forms on record and can include a tag or linker. Residues count along the entry.
UniProt Q9CS84, residues 31-1514: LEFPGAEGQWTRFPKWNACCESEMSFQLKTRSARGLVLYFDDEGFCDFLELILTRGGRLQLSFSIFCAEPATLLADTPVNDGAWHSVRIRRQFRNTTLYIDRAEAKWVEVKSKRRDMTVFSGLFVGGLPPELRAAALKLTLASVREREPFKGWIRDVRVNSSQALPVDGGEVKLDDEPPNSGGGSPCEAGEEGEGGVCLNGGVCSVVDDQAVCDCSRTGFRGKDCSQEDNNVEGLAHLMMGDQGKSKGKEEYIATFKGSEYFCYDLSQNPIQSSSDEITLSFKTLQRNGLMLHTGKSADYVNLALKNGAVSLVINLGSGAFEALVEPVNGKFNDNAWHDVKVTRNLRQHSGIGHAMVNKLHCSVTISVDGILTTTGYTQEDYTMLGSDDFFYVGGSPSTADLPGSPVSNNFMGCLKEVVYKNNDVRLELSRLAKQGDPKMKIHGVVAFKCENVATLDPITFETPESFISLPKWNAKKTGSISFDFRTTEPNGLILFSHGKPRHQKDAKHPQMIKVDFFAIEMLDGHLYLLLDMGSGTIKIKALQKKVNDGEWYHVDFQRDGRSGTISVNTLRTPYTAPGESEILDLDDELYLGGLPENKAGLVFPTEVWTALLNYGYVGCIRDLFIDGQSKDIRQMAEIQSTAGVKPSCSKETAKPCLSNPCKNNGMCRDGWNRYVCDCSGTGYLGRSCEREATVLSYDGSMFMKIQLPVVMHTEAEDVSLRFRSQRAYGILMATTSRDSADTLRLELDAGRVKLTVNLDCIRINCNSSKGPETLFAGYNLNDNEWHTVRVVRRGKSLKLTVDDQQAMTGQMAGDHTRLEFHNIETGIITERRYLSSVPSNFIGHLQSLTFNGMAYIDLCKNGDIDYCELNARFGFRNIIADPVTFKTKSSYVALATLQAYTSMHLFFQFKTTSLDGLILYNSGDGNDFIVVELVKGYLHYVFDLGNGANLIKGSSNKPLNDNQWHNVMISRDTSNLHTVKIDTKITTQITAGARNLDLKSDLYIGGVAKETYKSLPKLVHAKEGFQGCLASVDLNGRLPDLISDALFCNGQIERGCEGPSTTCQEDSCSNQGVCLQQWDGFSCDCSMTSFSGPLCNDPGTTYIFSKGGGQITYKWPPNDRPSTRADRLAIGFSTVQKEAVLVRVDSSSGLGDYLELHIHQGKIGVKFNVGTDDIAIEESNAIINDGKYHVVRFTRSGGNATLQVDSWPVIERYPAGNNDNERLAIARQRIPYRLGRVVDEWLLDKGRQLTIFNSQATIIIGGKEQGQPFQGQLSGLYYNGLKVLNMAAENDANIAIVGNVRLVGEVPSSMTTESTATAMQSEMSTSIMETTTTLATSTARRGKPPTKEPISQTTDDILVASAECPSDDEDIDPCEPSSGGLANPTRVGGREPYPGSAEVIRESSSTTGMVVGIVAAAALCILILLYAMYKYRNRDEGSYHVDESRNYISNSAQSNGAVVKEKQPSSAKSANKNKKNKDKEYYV
UniProt E9Q7X7: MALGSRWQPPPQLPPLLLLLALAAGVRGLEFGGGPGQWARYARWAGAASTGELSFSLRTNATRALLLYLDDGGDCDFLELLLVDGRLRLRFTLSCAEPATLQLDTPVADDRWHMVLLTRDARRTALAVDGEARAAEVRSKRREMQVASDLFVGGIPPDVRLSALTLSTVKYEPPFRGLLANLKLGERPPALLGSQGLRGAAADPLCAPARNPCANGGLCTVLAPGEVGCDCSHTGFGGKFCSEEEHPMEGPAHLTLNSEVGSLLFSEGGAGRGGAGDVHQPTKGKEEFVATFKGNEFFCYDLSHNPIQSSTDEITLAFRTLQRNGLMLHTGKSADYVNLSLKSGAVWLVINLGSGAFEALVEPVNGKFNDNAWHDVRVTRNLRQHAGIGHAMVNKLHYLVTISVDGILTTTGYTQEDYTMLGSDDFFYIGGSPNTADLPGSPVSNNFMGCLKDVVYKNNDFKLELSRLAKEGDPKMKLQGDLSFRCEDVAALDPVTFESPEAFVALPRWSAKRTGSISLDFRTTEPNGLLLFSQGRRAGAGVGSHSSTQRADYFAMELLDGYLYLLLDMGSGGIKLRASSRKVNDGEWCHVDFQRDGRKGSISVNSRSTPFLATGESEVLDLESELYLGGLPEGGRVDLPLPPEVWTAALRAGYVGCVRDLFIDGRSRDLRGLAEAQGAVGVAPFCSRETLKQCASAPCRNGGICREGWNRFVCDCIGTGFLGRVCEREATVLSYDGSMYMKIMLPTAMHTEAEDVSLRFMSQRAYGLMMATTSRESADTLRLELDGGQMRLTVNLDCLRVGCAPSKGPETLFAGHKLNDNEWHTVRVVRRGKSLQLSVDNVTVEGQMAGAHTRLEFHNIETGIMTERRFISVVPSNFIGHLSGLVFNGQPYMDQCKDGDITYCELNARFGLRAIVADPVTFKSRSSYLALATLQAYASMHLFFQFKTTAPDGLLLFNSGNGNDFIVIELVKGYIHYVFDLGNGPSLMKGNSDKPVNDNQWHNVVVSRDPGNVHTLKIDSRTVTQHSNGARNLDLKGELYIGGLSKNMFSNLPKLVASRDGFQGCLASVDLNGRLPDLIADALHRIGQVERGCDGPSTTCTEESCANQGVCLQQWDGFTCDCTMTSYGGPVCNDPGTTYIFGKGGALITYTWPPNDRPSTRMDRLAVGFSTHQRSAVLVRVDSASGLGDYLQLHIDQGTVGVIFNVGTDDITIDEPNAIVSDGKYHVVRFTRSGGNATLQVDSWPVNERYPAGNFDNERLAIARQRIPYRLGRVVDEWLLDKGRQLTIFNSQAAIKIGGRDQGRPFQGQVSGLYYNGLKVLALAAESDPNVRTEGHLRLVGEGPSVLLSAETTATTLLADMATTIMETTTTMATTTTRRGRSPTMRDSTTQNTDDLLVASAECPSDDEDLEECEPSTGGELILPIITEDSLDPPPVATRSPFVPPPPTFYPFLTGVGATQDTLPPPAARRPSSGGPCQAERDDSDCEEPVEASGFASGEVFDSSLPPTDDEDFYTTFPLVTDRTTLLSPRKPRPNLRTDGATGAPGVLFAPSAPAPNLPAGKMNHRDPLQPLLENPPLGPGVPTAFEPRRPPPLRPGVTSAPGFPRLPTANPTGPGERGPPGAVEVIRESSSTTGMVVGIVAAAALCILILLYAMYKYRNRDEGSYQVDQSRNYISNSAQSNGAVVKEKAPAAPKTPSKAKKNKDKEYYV
HA-NRX2αS1(+) S2(+) S3(+) S4(+) (extracellularly HA-tagged neurexin2α): residues 29-1710 of E9Q7X7
pDisplay-NRX2α LNS1 (aa 29-199): residues 29-199 of E9Q7X7
UniProt M0RAS4, residues 25-448: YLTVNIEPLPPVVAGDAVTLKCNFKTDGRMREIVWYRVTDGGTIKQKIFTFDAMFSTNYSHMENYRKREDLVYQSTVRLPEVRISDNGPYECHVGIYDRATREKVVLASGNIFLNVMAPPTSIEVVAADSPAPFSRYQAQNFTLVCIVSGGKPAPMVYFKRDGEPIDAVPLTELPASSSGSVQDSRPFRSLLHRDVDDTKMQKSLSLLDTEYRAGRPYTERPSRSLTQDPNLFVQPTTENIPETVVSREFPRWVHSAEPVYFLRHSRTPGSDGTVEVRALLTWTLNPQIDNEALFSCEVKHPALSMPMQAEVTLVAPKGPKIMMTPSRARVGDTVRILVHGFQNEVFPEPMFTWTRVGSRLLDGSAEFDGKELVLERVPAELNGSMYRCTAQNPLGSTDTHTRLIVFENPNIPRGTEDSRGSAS

- binding [1]: no binding (tested: 100 nM)
- binding [2]: binds
- binding [3]: binds
Substance: IgSF21-Fc (ectodomain of rat IgSF21 fused to the human immunoglobulin Fc region) (from UniProt M0RAS4 25-448) (Fc fusion)

Source: article PMC5581337
